In PMC8034651 one finds binding data, which are given here for seven molecules.

Chains of the proteins cited; added tags and fusions are not shown.
UniProt Q07955: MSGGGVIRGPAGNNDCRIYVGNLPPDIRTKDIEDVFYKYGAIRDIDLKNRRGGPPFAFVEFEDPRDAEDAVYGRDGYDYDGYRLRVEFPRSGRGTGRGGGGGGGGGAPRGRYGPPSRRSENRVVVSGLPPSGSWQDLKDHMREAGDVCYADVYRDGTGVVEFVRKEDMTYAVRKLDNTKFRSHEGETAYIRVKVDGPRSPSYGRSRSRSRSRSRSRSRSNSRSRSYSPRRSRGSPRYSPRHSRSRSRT
UniProt O75533: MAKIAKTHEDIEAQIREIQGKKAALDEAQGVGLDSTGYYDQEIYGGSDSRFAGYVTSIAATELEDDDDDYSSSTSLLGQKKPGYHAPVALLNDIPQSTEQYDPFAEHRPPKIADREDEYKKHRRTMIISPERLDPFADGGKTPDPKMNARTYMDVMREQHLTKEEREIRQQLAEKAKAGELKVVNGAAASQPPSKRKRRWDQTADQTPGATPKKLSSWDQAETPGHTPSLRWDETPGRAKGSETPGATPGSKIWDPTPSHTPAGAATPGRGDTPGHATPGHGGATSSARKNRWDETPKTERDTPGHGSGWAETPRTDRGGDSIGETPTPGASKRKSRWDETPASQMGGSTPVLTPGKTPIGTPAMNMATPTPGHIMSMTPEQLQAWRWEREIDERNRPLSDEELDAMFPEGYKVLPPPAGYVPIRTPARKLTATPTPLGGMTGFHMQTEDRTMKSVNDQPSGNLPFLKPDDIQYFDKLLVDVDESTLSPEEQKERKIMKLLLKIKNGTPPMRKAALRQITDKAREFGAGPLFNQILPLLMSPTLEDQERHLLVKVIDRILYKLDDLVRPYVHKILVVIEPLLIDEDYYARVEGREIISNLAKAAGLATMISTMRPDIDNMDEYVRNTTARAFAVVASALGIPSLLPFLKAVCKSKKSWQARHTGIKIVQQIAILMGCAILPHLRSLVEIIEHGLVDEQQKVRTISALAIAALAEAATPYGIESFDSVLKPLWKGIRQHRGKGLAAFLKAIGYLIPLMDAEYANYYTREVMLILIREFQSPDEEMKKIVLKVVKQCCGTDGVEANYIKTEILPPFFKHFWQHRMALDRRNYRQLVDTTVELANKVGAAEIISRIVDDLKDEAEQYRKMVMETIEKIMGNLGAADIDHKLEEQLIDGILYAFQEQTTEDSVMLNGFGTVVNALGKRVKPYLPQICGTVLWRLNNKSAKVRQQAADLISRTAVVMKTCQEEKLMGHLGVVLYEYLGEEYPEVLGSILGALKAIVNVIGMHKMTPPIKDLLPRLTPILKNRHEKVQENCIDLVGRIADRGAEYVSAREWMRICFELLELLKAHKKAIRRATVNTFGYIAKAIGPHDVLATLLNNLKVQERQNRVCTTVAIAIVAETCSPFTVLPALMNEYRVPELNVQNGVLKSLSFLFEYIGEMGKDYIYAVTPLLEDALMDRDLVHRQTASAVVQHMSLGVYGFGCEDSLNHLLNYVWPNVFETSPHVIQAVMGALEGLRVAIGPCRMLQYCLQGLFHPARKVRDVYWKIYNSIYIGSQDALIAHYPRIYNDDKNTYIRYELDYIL

Results are given in words; binding and its absence hold for the method and conditions named. Binding seen in cells or lysates may run through a third protein. Here binding means that the protein was enriched with, or labelled near, the bait; the list need not be complete. Where a sequence is shown, tags or fusion partners need not be part of it.

The labels stand for the following.
T1: Pdcd7-Myc (UniProt Q9WTY1)
T1 sequence: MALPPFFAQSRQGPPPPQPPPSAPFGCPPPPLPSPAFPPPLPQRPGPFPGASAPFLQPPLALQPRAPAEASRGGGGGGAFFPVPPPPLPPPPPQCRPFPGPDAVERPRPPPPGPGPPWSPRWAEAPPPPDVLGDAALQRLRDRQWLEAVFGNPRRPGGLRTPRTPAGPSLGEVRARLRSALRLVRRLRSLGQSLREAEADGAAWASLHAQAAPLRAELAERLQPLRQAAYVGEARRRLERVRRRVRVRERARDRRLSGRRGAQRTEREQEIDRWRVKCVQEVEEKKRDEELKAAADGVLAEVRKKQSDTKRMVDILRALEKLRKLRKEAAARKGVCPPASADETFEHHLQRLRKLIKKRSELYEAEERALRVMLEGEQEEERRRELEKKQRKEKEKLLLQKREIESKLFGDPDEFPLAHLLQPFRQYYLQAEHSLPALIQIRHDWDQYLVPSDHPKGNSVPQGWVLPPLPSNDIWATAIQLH

B1: SNRNP40 (protein, UniProt Q96DI7 1-357)
chain: MIEQQKRKGPELPLVPVKRQRHELLLGAGSGPGAGQQQATPGALLQAGPPRCSSLQAPIMLLSGHEGEVYCCKFHPNGSTLASAGFDRLILLWNVYGDCDNYATLKGHSGAVMELHYNTDGSMLFSASTDKTVAVWDSETGERVKRLKGHTSFVNSCYPARRGPQLVCTGSDDGTVKLWDIRKKAAIQTFQNTYQVLAVTFNDTSDQIISGGIDNDIKVWDLRQNKLTYTMRGHADSVTGLSLSSEGSYLLSNAMDNTVRVWDVRPFAPKERCVKIFQGNVHNFEKNLLRCSWSPDGSKIAAGSADRFVYVWDTTSRRILYKLPGHAGSINEVAFHPDEPIIISASSDKRLYMGEIQ
B2: SRSF3 (protein, UniProt P84103 1-164)
chain: MHRDSCPLDCKVYVGNLGNNGNKTELERAFGYYGPLRSVWVARNPPGFAFVEFEDPRDAADAVRELDGRTLCGCRVRVELSNGEKRSRNRGPPPSWGRRPRDDYRRRSPPPRRRSPRRRSFSRSRSRSLSRDRRRERSLSRERNHKPSRSFSRSRSRSRSNERK
B3: U2AF1 (protein, UniProt Q01081 1-240)
chain: MAEYLASIFGTEKDKVNCSFYFKIGACRHGDRCSRLHNKPTFSQTIALLNIYRNPQNSSQSADGLRCAVSDVEMQEHYDEFFEEVFTEMEEKYGEVEEMNVCDNLGDHLVGNVYVKFRREEDAEKAVIDLNNRWFNGQPIHAELSPVTDFREACCRQYEMGECTRGGFCNFMHLKPISRELRRELYGRRRKKHRSRSRSRERRSRSRDRGRGGGGGGGGGGGGRERDRRRSRDRERSGRF
B4: SF1 (protein, UniProt Q15637 1-639)
chain: MATGANATPLDFPSKKRKRSRWNQDTMEQKTVIPGMPTVIPPGLTREQERAYIVQLQIEDLTRKLRTGDLGIPPNPEDRSPSPEPIYNSEGKRLNTREFRTRKKLEEERHNLITEMVALNPDFKPPADYKPPATRVSDKVMIPQDEYPEINFVGLLIGPRGNTLKNIEKECNAKIMIRGKGSVKEGKVGRKDGQMLPGEDEPLHALVTANTMENVKKAVEQIRNILKQGIETPEDQNDLRKMQLRELARLNGTLREDDNRILRPWQSSETRSITNTTVCTKCGGAGHIASDCKFQRPGDPQSAQDKARMDKEYLSLMAELGEAPVPASVGSTSGPATTPLASAPRPAAPANNPPPPSLMSTTQSRPPWMNSGPSESRPYHGMHGGGPGGPGGGPHSFPHPLPSLTGGHGGHPMQHNPNGPPPPWMQPPPPPMNQGPHPPGHHGPPPMDQYLGSTPVGSGVYRLHQGKGMMPPPPMGMMPPPPPPPSGQPPPPPSGPLPPWQQQQQQPPPPPPPSSSMASSTPLPWQQNTTTTTTSAGTGSIPPWQQQQAAAAASPGAPQMQGNPTMVPLPPGVQPPLPPGAPPPPPPPPPGSAGMMYAPPPPPPPPMDPSNFVTMMGMGVAGMPPFGMPPAPPPPPPQN
B5: SRSF2 (protein, UniProt Q01130 1-221)
chain: MSYGRPPPDVEGMTSLKVDNLTYRTSPDTLRRVFEKYGRVGDVYIPRDRYTKESRGFAFVRFHDKRDAEDAMDAMDGAVLDGRELRVQMARYGRPPDSHHSRRGPPPRRYGGGGYGRRSRSPRRRRRSRSRSRSRSRSRSRSRYSRSKSRSRTRSRSRSTSKSRSARRSKSKSSSVSRSRSRSRSRSRSRSPPPVSKRESKSRSRSKSPPKSPEEEGAVSS

The target in the assay is T1, Pdcd7-Myc. In words: affinity purification with mass spectrometry; Pdcd7-Myc overexpressed in HEK293T cells for 48 h, cells UV cross-linked (365 nm), lysed in modified RIPA buffer (50 mM Tris-HCl pH 8.0, 150 mM NaCl, 0.5% SDS), immunoprecipitated with goat anti-Myc on protein G Dynabeads; LC-MS/MS, label-free; empty vector as control; hits: >2-fold spectrum counts over control.
For SRSF1 (from UniProt Q07955 1-248), the binding result was “binds”. Next, SF3B1 (from UniProt O75533 1-1304): “binds”; B1: “binds”; B2: “binds”. Next, B3: “binds”; B4: “binds”; B5: “binds”.
